In experiment [1] the target is T1, PfCDPK7-GST (AA 994-1291) (P. falciparum) (UniProt Q8IID2).
T1 sequence: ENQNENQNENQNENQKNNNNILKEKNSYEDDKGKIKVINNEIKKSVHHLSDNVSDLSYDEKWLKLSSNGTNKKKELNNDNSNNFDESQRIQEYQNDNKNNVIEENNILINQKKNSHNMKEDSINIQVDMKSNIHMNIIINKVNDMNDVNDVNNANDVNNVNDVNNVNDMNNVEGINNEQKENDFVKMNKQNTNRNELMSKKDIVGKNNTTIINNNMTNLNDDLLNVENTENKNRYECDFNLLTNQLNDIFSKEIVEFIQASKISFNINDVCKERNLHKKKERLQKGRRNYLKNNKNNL
As to the kind of experiment: pull-down; GST, or PfCDPK7-GST bound to glutathione agarose beads, incubated with 2 μg His-tagged RCC region, BSA and binding buffer; blot with anti-His; both purified.

The target of experiment [2] is T2, RCC region of PfRCC-PIP (AA 1-399) (pGBKT7 two-hybrid construct) (P. falciparum) (UniProt Q8I2V4).
T2 sequence: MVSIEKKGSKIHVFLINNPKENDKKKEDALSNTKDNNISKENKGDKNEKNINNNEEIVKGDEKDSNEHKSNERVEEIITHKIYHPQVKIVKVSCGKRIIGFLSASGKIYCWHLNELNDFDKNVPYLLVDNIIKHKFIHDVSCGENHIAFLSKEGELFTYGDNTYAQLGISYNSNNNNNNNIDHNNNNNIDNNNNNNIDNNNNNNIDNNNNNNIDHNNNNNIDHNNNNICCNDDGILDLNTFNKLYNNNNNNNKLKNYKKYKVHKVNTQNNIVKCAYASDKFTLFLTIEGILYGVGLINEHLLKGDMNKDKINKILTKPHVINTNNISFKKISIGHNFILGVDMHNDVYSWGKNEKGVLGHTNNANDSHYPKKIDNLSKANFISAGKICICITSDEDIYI
As to the kind of experiment: two-hybrid; screen of a P. falciparum cDNA library (GAL4-AD) with the RCC region (AA 1-399) in pGBKT7 as bait.

For experiment [3], the target named is T2, RCC region of PfRCC-PIP (AA 1-399) (pGBKT7 two-hybrid construct) (P. falciparum). As to the kind of experiment: two-hybrid; mating of Y187 (pGBKT7 constructs) with Y2HGold (pGADT7 constructs); diploids checked on Ddo, interactions on Tdo (low stringency) and Qdo (high stringency) medium.

Results are given in words; binding and its absence hold for the method and conditions named. Some entries that bind do so weakly or less than the wild type. For part of these data: Tags and fused reporters may be left off the sequences shown.

B1: His-tagged recombinant RCC region of PfRCC-PIP (AA 1-399) (domain or fragment, UniProt Q8I2V4 1-399)
chain: T2 sequence
In the case of B1, the binding entry in experiment [1] was “binds”.

B2: PfCDPK7 fragment (AA 994-1291) (pGADT7 two-hybrid clone) (domain or fragment, UniProt Q8IID2 994-1291)
chain: T1 sequence
For the molecule B2, the binding result in experiment [2] and in experiment [3] was “binds” throughout.

(Values after paper PMC6220109.)
